PubChem BioAssay AID1224830, NIAID | 2016

- Screen: 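Regulators of TLR4 signalling towards TNF-alpha in macrophage-like cells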 (primary screen)
- Cell system: human THP-1 monocytic leukaemia cells, TNF dual-luciferase reporter clone, PMA-differentiated to macrophage-like cells
- Reagent: siRNA pool against human genes, 50 nM
- Duration: LPS for 4 h, given about 3 days after siRNA transfection
- Conditions: bacterial LPS (TLR4 ligand), 10 ng/ml
- Detection: 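TNF firefly reporter luminescence divided by renilla, normalised to the plate median, then turned into a robust z-score for each replicate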
- Reading the numbers: TNF reporter robust z-score: higher = stronger TNF reporter response to LPS
- Active means: 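a well is active when its z-score exceeds 2.8 or falls below -1.5; control wells carry no call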
Shown is a random part of about 18,000 deposited reagents. About 2,900 of all reagents (16%) were called active. 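Calls are made per well; low scores hint the gene aids the LPS response, high scores that it dampens it.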 A number with no mark means an inactive call. Repeated entries: four replicate wells of each siRNA pool.

Silencing of PLAGL1 (PLAG1 like zinc finger 1) came out at: TNF reporter robust z-score -0.57.
PLAGL1 (PLAG1 like zinc finger 1) scored TNF reporter robust z-score -0.18.
Against PLAGL1 (PLAG1 like zinc finger 1) the deposit lists TNF reporter robust z-score -0.05.
Silencing of PLAGL1 (PLAG1 like zinc finger 1) came out at: TNF reporter robust z-score 1.88.
With knock-down of C5orf24 (chromosome 5 open reading frame 24) the results were TNF reporter robust z-score -0.46.
Silencing of C5orf24 (chromosome 5 open reading frame 24) resulted in: TNF reporter robust z-score 0.15.
For C5orf24 (chromosome 5 open reading frame 24) the deposit lists TNF reporter robust z-score 0.03.
For C5orf24 (chromosome 5 open reading frame 24), the entry reads TNF reporter robust z-score 0.28.
With knock-down of SPINK4 (serine peptidase inhibitor Kazal type 4), the screen gave TNF reporter robust z-score -0.26.
After knock-down of SPINK4 (serine peptidase inhibitor Kazal type 4), the screen gave TNF reporter robust z-score 0.99.
SPINK4 (serine peptidase inhibitor Kazal type 4) gave TNF reporter robust z-score 0.33.
Depletion of SPINK4 (serine peptidase inhibitor Kazal type 4) resulted in: TNF reporter robust z-score 0.29.
With knock-down of MPDZ (multiple PDZ domain crumbs cell polarity complex component), the record shows TNF reporter robust z-score -1.22.
MPDZ (multiple PDZ domain crumbs cell polarity complex component) gave TNF reporter robust z-score -1.19.
MPDZ (multiple PDZ domain crumbs cell polarity complex component) gave TNF reporter robust z-score -1.29.
Against MPDZ (multiple PDZ domain crumbs cell polarity complex component) the deposit lists TNF reporter robust z-score -1.48.
With knock-down of NPRL2 (NPR2 like, GATOR1 complex subunit) the results were TNF reporter robust z-score -0.34.
NPRL2 (NPR2 like, GATOR1 complex subunit) gave TNF reporter robust z-score 0.86.
After knock-down of NPRL2 (NPR2 like, GATOR1 complex subunit), the record shows TNF reporter robust z-score -0.3.
After knock-down of NPRL2 (NPR2 like, GATOR1 complex subunit), the screen gave TNF reporter robust z-score -0.21.
With knock-down of PCSK9 (proprotein convertase subtilisin/kexin type 9), the record shows TNF reporter robust z-score -0.63.
PCSK9 (proprotein convertase subtilisin/kexin type 9) scored TNF reporter robust z-score 0.12.
Silencing of PCSK9 (proprotein convertase subtilisin/kexin type 9) came out at: TNF reporter robust z-score 0.37.
PCSK9 (proprotein convertase subtilisin/kexin type 9) showed TNF reporter robust z-score -0.66.
For MRAP2 (melanocortin 2 receptor accessory protein 2), the values are TNF reporter robust z-score 0.97.
MRAP2 (melanocortin 2 receptor accessory protein 2) showed TNF reporter robust z-score 2.3.
After knock-down of MRAP2 (melanocortin 2 receptor accessory protein 2) the results were TNF reporter robust z-score 1.41.
MRAP2 (melanocortin 2 receptor accessory protein 2) scored TNF reporter robust z-score 1.57.
With knock-down of CENPN (centromere protein N), the record shows TNF reporter robust z-score 0.87.
CENPN (centromere protein N) showed TNF reporter robust z-score 0.86.
CENPN (centromere protein N) gave TNF reporter robust z-score 2.63.
Against CENPN (centromere protein N) the deposit lists TNF reporter robust z-score 0.23.
Silencing of HEATR5B (HEAT repeat containing 5B) resulted in: TNF reporter robust z-score -0.44.
Silencing of HEATR5B (HEAT repeat containing 5B) came out at: TNF reporter robust z-score 0.1.
After knock-down of HEATR5B (HEAT repeat containing 5B) the results were TNF reporter robust z-score -0.83.
Silencing of HEATR5B (HEAT repeat containing 5B) resulted in: TNF reporter robust z-score -0.15.
For MYO3B (myosin IIIB), the values are TNF reporter robust z-score -0.94.
Depletion of MYO3B (myosin IIIB) came out at: TNF reporter robust z-score -0.01.
With knock-down of MYO3B (myosin IIIB), the record shows TNF reporter robust z-score -0.88.
MYO3B (myosin IIIB) scored TNF reporter robust z-score 0.22.
FXR2 (FMR1 autosomal homolog 2) showed TNF reporter robust z-score 1.3.
FXR2 (FMR1 autosomal homolog 2) showed TNF reporter robust z-score -0.13.
After knock-down of FXR2 (FMR1 autosomal homolog 2), the screen gave TNF reporter robust z-score 0.25.
Silencing of FXR2 (FMR1 autosomal homolog 2) resulted in: TNF reporter robust z-score 2.05.
After knock-down of MFAP2 (microfibril associated protein 2), the screen gave TNF reporter robust z-score 0.55.
Silencing of MFAP2 (microfibril associated protein 2) resulted in: TNF reporter robust z-score -0.68.
MFAP2 (microfibril associated protein 2) gave TNF reporter robust z-score 0.29.
Depletion of MFAP2 (microfibril associated protein 2) resulted in: TNF reporter robust z-score 2.49.
Against SCGB1C1 (secretoglobin family 1C member 1), the entry reads TNF reporter robust z-score -0.63.
SCGB1C1 (secretoglobin family 1C member 1) gave TNF reporter robust z-score -0.81.
Against SCGB1C1 (secretoglobin family 1C member 1), the values are TNF reporter robust z-score -0.58.
Knock-down of SCGB1C1 (secretoglobin family 1C member 1) resulted in: TNF reporter robust z-score 0.31.
Silencing of KRTAP10-4 (keratin associated protein 10-4) came out at: TNF reporter robust z-score 1.03.
KRTAP10-4 (keratin associated protein 10-4) scored TNF reporter robust z-score -0.57.
After knock-down of KRTAP10-4 (keratin associated protein 10-4), the record shows TNF reporter robust z-score 0.67.
After knock-down of KRTAP10-4 (keratin associated protein 10-4), the screen gave TNF reporter robust z-score 0.12.
After knock-down of DLX6 (distal-less homeobox 6), the screen gave TNF reporter robust z-score -0.1.
DLX6 (distal-less homeobox 6) scored TNF reporter robust z-score -0.4.
Knock-down of DLX6 (distal-less homeobox 6) came out at: TNF reporter robust z-score 1.16.
For DLX6 (distal-less homeobox 6), the entry reads TNF reporter robust z-score -0.09.

5 entries from above in another layout:
NPRL2 (NPR2 like, GATOR1 complex subunit)
- TNF reporter robust z-score: -0.34

NPRL2 (NPR2 like, GATOR1 complex subunit)
- TNF reporter robust z-score: 0.86

NPRL2 (NPR2 like, GATOR1 complex subunit)
- TNF reporter robust z-score: -0.3

NPRL2 (NPR2 like, GATOR1 complex subunit)
- TNF reporter robust z-score: -0.21

PCSK9 (proprotein convertase subtilisin/kexin type 9)
- TNF reporter robust z-score: -0.63
